Reference: PubChem BioAssay AID2685 (National Center for Advancing Translational Sciences (NCATS), 2010)
The other results are listed elsewhere or left out. The main result of the screen is listed elsewhere. These columns were measured beside it and carry no call. The list favours compounds with an active or inconclusive main result. Words in brackets tell the shape of the fitted curve; partial curves, single points and poor fits give uncertain potencies.

Assay: qHTS Assay for Lipid Storage Modulators in Drosophila S3 Cells;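 for cell number change: cells counted by Cell Tracker Red CMTPX staining in the red channel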
Conditions: BODIPY lipid droplet fluorescence, 18-24 h; for cell number change: measured here: cell count max response, cells fed with added oleic acid
Outline: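 Drosophila S3 cells got compounds at several concentrations plus oleic acid (400 uM solution). Laser-scanning cytometry with 488 nm excitation read lipid droplets at 500-530 nm and cells at 575-640 nm. Percent activity was relative to 20 uM Triacsin C.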

[1] = measured here: lipid fluorescence (Fed channel) AC50, cells fed with added oleic acid
[2] = measured here: cell number channel AC50, cells fed with added oleic acid

Structure (SMILES)	cell number change [%]	AC50 [1]	AC50 [2]
Nc1nc2ccccc2n1/N=C/c1ccc([N+](=O)[O-])s1	-14.7	9.2 µM [falling, partial curve]	–
CCCCc1c(O)nc(SCC(=O)Nc2cccc3ccccc23)n(-c2ccccc2OC)c1=O	–	29.1 µM [falling, single point]	–
N#C/C(=C\Nc1ccccc1SC(F)(F)F)c1nc(-c2ccc(F)cc2)cs1	-12.7	6.51 µM [falling, single point]	–
COc1ccc([N+](=O)[O-])cc1N1C(=O)c2cccc3cccc(c23)C1=O	–	–	0.411 µM [falling, single point]
CCC(C)NC(=O)CN(c1cc(C)ccc1OC)S(C)(=O)=O (stereo not given)	-3.36	0.461 µM [falling, single point]	–
CCCCCCNCc1c(F)cccc1Cl	-3.14	–	–
CC1=C(C(=O)Nc2cc(C(=O)N(C)Cc3ccccc3)ccc2C)SCCO1	-15.9	29.1 µM [falling, single point]	0.103 µM [falling, partial curve, poor fit]
CNC(=O)NC(=O)CSc1ccc(S(=O)(=O)N(C)C2CCCCC2)cn1	-5.77	29.1 µM [rising, single point]	1.03 µM [falling, full curve]
CCOC(=O)NC(=S)Nc1cccc(NC(=S)NC(=O)OCC)c1	17.1	0.00461 µM [rising, full curve, poor fit]	–
CCOc1ccc(C(CC(=O)O)NS(=O)(=O)c2ccc(C)cc2)cc1OC (stereo not given)	7.27	0.058 µM [falling, full curve, poor fit]	–
O=C(c1ccc(Cl)cc1)C1CCN(C(=O)c2ccc(F)cc2)CC1	-29.1	–	–
COc1ccc(C/C(N)=N/OC(=O)COc2ccccc2C)cc1	28.7	18.4 µM [rising, partial curve]	–
CCC(=O)Nc1nnc(SCC(=O)NCCc2ccc(OC)c(OC)c2)s1	48.3	14.6 µM [rising, partial curve]	18.4 µM [rising, single point]
Cc1cccc(-n2cnc3c(c2=O)c2nc4ccccc4nc2n3Cc2ccco2)c1	0.714	0.92 µM [rising, partial curve]	–
COC(=O)c1c(C)[nH]c(C(=O)/C=C/c2ccc(Cl)cc2)c1C	-60	20.6 µM [falling, single point]	20.6 µM [falling, partial curve]
COc1ccc(OCCCC(=O)OC(C)C(=O)Nc2ccc(C)cc2)cc1 (stereo not given)	-21.6	14.6 µM [falling, partial curve]	–
CN(C)S(=O)(=O)c1ccc(N2CCCC2)c(C(=O)NNC(=O)COc2cccc(F)c2)c1	38.1	32.6 µM [rising, partial curve, poor fit]	23.1 µM [rising, single point]
COc1ccc(OC)c(NC(=O)c2cccc(S(=O)(=O)N(Cc3ccccc3)c3ccccc3OC)c2)c1	-0.317	0.58 µM [rising, full curve]	–
O=C(Nc1ccc(N2CCN(C(=O)c3ccccc3)CC2)cc1)c1cc2ccccc2o1	-19.3	–	–
Cc1ccc(S(=O)(=O)O/N=C2\CCCc3ccccc32)cc1	-53.4	–	23.1 µM [falling, partial curve, poor fit]

Fetched by compound from above:
Structure (SMILES)	cell number change [%]	AC50 [1]	AC50 [2]
COc1ccc(OC)c(NC(=O)c2cccc(S(=O)(=O)N(Cc3ccccc3)c3ccccc3OC)c2)c1	-0.317	0.58 µM [rising, full curve]	–
CCC(=O)Nc1nnc(SCC(=O)NCCc2ccc(OC)c(OC)c2)s1	48.3	14.6 µM [rising, partial curve]	18.4 µM [rising, single point]
Nc1nc2ccccc2n1/N=C/c1ccc([N+](=O)[O-])s1	-14.7	9.2 µM [falling, partial curve]	–

(further entries)

Structure (SMILES)	cell number change [%]	AC50 [1]	AC50 [2]
Cc1c2cn[nH]c(=O)c2c(C)n1Cc1ccc(F)cc1	47.8	–	18.4 µM [rising, single point]
CC1(C)CC(=O)N(c2ccccc2)C1(C)O (stereo not given)	–	8.2 µM [falling, partial curve]	–
CN1CCN(CC#CC2(O)CCCCC2)CC1	5.89	–	–
Cc1ccc(C(=O)NCc2cccc(C(F)(F)F)c2)cc1S(=O)(=O)N1CCCCC1	24.7	9.2 µM [rising, partial curve]	–
O=C(NNC(=S)NC1CC2CCC1C2)c1ccc(Cl)cc1 (stereo not given)	-8.81	0.146 µM [rising, full curve, poor fit]	–
O=C(CSc1cn[nH]n1)Nc1cccc(C(=O)O)c1	15.2	–	–
COc1ccc(/C=C(\NC(=O)c2ccc(OC)cc2)C(=O)NC(CCSC)C(=O)O)cc1 (stereo not given)	-18.4	6.51 µM [falling, single point]	2.59 µM [falling, single point]
C=C(C)C1CC=C(C)/C(=N/NC(=O)COc2ccc(Cl)cc2)C1 (stereo not given)	10.3	0.291 µM [rising, full curve]	–
COC(=O)c1c(=O)n(O)c2ccc(OC)cc2[n+]1[O-]	10.6	16.4 µM [falling, partial curve, poor fit]	–
CC1CCCCN1C(=O)c1cccc(NC(=O)c2ccccc2)c1 (stereo not given)	8.4	1.16 µM [falling, full curve]	1.03 µM [falling, full curve]
CCOC(=O)c1c(C)[nH]c(C)c1C(=O)COC(=O)c1ccc(Cl)c(S(N)(=O)=O)c1	36.2	1.64 µM [rising, partial curve, poor fit]	0.164 µM [rising, full curve]
N#CC1(Nc2ccccc2)C(=O)Nc2ccccc21 (stereo not given)	28.1	–	–
CCC1(CC)NC(=O)N(CC(=O)NC(=O)NCc2ccccc2)C1=O	-3.17	1.84 µM [falling, partial curve]	–
CCn1cc(C(=O)NCC(OC)OC)c(=O)c2cc(S(=O)(=O)N(C)C3CCCCC3)ccc21	-13	29.1 µM [rising, single point]	–
Cc1onc(-c2c(Cl)cccc2Cl)c1C(=O)NCCN1CCOCC1	-8.2	29.1 µM [falling, single point]	–
CC(C)C(=O)Nc1cccc(C(=O)Nc2nncs2)c1	17.1	1.16 µM [falling, full curve, poor fit]	–
Cc1nc(N)sc1Cc1ccc2c(c1)OCO2	-15.3	–	–
O=C(Nc1cccc(Cl)c1N1CCOCC1)c1ccc(Br)o1	-6.27	9.2 µM [falling, partial curve]	–
O=C(c1ccc(C#Cc2ccccc2)o1)N1CCN(c2ccccn2)CC1	-8.79	–	–
